# From the supplement of paper PMC7238544
# Where a name gives a salt, the structure may show the parent alone. ± gives the standard deviation of the averaged measurements. This is one part of the list. The data scatter; read single values as rough.
# Experiments:
# hAMSC donor 1 [1] = test: Hoechst total cell count ratio vs vehicle control; higher = more cells (less toxicity)
# hAMSC donor 2 [2] = test: as above
# hAMSC donor 2 [3] = test: transgenic luciferase activity (RLU/mg protein) fold change vs vehicle control (ratio); higher = more transgene expression
# hAMSC donor 1 [4] = test: transfection efficiency (EGFP+ cells / Hoechst count) fold change vs vehicle control (ratio); higher = enhanced transfection
# hAMSC donor 2 [5] = test: as above
# hAMSC donor 1 [6] = test: transgenic luciferase activity (RLU/mg protein) fold change vs vehicle control (ratio); hAMSC are human adipose-derived mesenchymal stem cells given an EGFP-luciferase plasmid by lipofection; higher = more transgene expression
# [7] = priming compound concentration 0.2 µM
# [8] = priming compound concentration 1.7 µM
# [9] = priming compound concentration 13 µM
SMILES,Hoechst total cell count ratio (hAMSC donor 1 [1]; [7]),Hoechst total cell count ratio (hAMSC donor 1 [1]; [8]),Hoechst total cell count ratio (hAMSC donor 1 [1]; [9]),Hoechst total cell count ratio (hAMSC donor 2 [2]; [7]),Hoechst total cell count ratio (hAMSC donor 2 [2]; [8]),Hoechst total cell count ratio (hAMSC donor 2 [2]; [9]),transgenic luciferase activity (hAMSC donor 2 [3]; [9]),transfection efficiency (hAMSC donor 1 [4]; [7]),transfection efficiency (hAMSC donor 1 [4]; [8]),transfection efficiency (hAMSC donor 1 [4]; [9]),transfection efficiency (hAMSC donor 2 [5]; [7]),transfection efficiency (hAMSC donor 2 [5]; [8]),transfection efficiency (hAMSC donor 2 [5]; [9]),transgenic luciferase activity (hAMSC donor 1 [6]; [8]),transgenic luciferase activity (hAMSC donor 2 [3]; [8]),transgenic luciferase activity (hAMSC donor 1 [6]; [9])
O=C1Nc2ccc(Cl)cc2[C@@](C#CC2CC2)(C(F)(F)F)O1 [Efavirenz],1.31 ± 0.15,1.27 ± 0.075,1.18 ± 0.091,0.786 ± 0.088,0.998 ± 0.14,0.932 ± 0.04,0.907 ± 0.16,1.11 ± 0.32,1.17 ± 0.088,1.06 ± 0.18,1.28 ± 0.14,1.19 ± 0.19,1.25 ± 0.091,–,–,–
CCCCC(=O)N(Cc1ccc(-c2ccccc2-c2nnn[nH]2)cc1)[C@H](C(=O)O)C(C)C [Valsartan],1.58 ± 0.28,1.07 ± 0.14,1.28 ± 0.49,1.26 ± 0.25,1.35 ± 0.11,1.03 ± 0.042,0.735 ± 0.069,0.698 ± 0.15,1.17 ± 0.35,1.23 ± 0.18,0.948 ± 0.16,1.03 ± 0.055,0.926 ± 0.22,–,–,–
CCC(C)(C)C(=O)O[C@H]1C[C@@H](C)C=C2C=C[C@H](C)[C@H](CC[C@@H]3C[C@@H](O)CC(=O)O3)[C@H]21 [Simvastatin],–,–,–,–,–,–,–,1.48 ± 0.3,1.3 ± 0.081,1.6 ± 0.34,1.47 ± 0.28,1.12 ± 0.24,1.86 ± 0.33,1.04 ± 0.36,–,–
CNC(=N)NCCC[C@H](N)C(=O)O [L-NMMA acetate],1.02 ± 0.032,1.43 ± 0.15,1.21 ± 0.048,0.828 ± 0.13,1.18 ± 0.049,0.888 ± 0.067,1.65 ± 0.78,0.925 ± 0.36,1.13 ± 0.11,1.2 ± 0.33,1.03 ± 0.12,1.34 ± 0.097,1.26 ± 0.069,–,–,–
COc1ccc(CC(C)NCC(O)c2ccc(O)c(NC=O)c2)cc1 (stereo not drawn) [Formoterol fumarate dihydrate],1.2 ± 0.18,1.22 ± 0.33,1.51 ± 0.093,1.1 ± 0.23,1.2 ± 0.26,1.59 ± 0.15,–,0.837 ± 0.25,1.34 ± 0.3,0.914 ± 0.2,0.772 ± 0.26,1.17 ± 0.057,0.889 ± 0.52,–,0.51 ± 0.083,–
CC(=O)NC[C@H]1CN(c2ccc(N3CCOCC3)c(F)c2)C(=O)O1 [Linezolid],1.27 ± 0.2,1.25 ± 0.099,1.18 ± 0.054,1.64 ± 0.25,1.43 ± 0.12,1.29 ± 0.044,–,1.13 ± 0.16,1.26 ± 0.32,1.83 ± 0.7,1.05 ± 0.1,1.49 ± 0.44,1.37 ± 0.18,–,–,3.79 ± 0.55
CN(C)CCC[C@@]1(c2ccc(F)cc2)OCc2cc(C#N)ccc21 [Escitalopram oxalate],1.62 ± 0.18,1.44 ± 0.031,1.52 ± 0.26,1.2 ± 0.14,1.26 ± 0.11,1.57 ± 0.23,–,0.85 ± 0.29,1.2 ± 0.065,0.936 ± 0.055,0.927 ± 0.16,0.998 ± 0.25,0.979 ± 0.13,–,0.41 ± 0.018,–
CC[C@@H]1C(=O)OC[C@@H]1Cc1cncn1C [Pilocarpine hydrochloride],1.28 ± 0.016,1.29 ± 0.17,1.62 ± 0.49,1.21 ± 0.11,1.33 ± 0.062,0.894 ± 0.06,0.898 ± 0.092,1.13 ± 0.13,1.04 ± 0.15,0.779 ± 0.28,0.888 ± 0.15,1.03 ± 0.22,0.844 ± 0.15,–,–,–
CC(C)(C)NC(=O)[C@H]1CC[C@H]2[C@@H]3CC[C@H]4NC(=O)C=C[C@]4(C)[C@H]3CC[C@]12C [Finasteride],1.22 ± 0.1,1.19 ± 0.055,1.12 ± 0.14,1.3 ± 0.36,1.09 ± 0.19,1.38 ± 0.042,–,0.767 ± 0.13,0.749 ± 0.13,1.25 ± 0.36,0.934 ± 0.035,1.35 ± 0.23,0.703 ± 0.062,–,–,0.818 ± 0.6
CCCN1CCCC[C@H]1C(=O)Nc1c(C)cccc1C [Ropivacaine hydrochloride],0.97 ± 0.15,1.02 ± 0.12,1 ± 0.02,1.25 ± 0.071,0.942 ± 0.11,0.915 ± 0.043,0.543 ± 0.24,0.988 ± 0.58,0.887 ± 0.14,1.26 ± 0.4,0.944 ± 0.2,1.43 ± 0.12,1.46 ± 0.1,–,–,–
Cc1c(O)cccc1C(=O)N[C@@H](CSc1ccccc1)[C@H](O)CN1C[C@H]2CCCC[C@H]2C[C@H]1C(=O)NC(C)(C)C [Nelfinavir mesylate],1.59 ± 0.2,1.45 ± 0.13,1.33 ± 0.099,1.06 ± 0.14,1.06 ± 0.15,1.16 ± 0.093,–,1.17 ± 0.33,1.18 ± 0.28,0.861 ± 0.24,1.26 ± 0.24,1.11 ± 0.26,1.03 ± 0.053,–,0.586 ± 0.088,–
CCN(CC)CCOC(=O)c1ccc(N)cc1 [Procaine hydrochloride],1.23 ± 0.15,1.17 ± 0.045,1.18 ± 0.085,1.11 ± 0.19,0.943 ± 0.11,1.1 ± 0.27,–,1.12 ± 0.18,0.865 ± 0.13,–,1.11 ± 0.33,1.32 ± 0.065,1.27 ± 0.19,0.703 ± 0.16,–,–
COc1c(N2C[C@@H]3CCCN[C@@H]3C2)c(F)cc2c(=O)c(C(=O)O)cn(C3CC3)c12 [Moxifloxacin hydrochloride],1.51 ± 0.17,1.31 ± 0.014,1.47 ± 0.13,0.96 ± 0.15,0.867 ± 0.021,1.08 ± 0.18,–,0.875 ± 0.18,1.12 ± 0.24,0.838 ± 0.12,1.03 ± 0.25,1.6 ± 0.29,1.07 ± 0.12,–,1 ± 0.27,–
CNCC[C@H](Oc1cccc2ccccc12)c1cccs1 [Duloxetine hydrochloride],1.12 ± 0.21,1.05 ± 0.12,1.3 ± 0.16,0.993 ± 0.04,1.17 ± 0.065,1.01 ± 0.1,0.588 ± 0.28,0.992 ± 0.35,1.53 ± 0.25,0.827 ± 0.16,1.17 ± 0.089,1.09 ± 0.031,0.703 ± 0.1,–,–,–
CCS(=O)(=O)CCn1c([N+](=O)[O-])cnc1C [Tinidazole],1.45 ± 0.12,1.21 ± 0.025,1.67 ± 0.21,1.38 ± 0.086,1.44 ± 0.11,0.9863 ± 0.0032,0.68 ± 0.033,0.799 ± 0.051,1.04 ± 0.17,0.809 ± 0.34,0.847 ± 0.15,0.952 ± 0.021,0.942 ± 0.075,–,–,–

# A second format for two compounds above:
SMILES | Hoechst total cell count ratio (hAMSC donor 1 [1]; [7]) | Hoechst total cell count ratio (hAMSC donor 1 [1]; [8]) | Hoechst total cell count ratio (hAMSC donor 1 [1]; [9]) | Hoechst total cell count ratio (hAMSC donor 2 [2]; [7]) | Hoechst total cell count ratio (hAMSC donor 2 [2]; [8]) | Hoechst total cell count ratio (hAMSC donor 2 [2]; [9]) | transgenic luciferase activity (hAMSC donor 2 [3]; [9]) | transfection efficiency (hAMSC donor 1 [4]; [7]) | transfection efficiency (hAMSC donor 1 [4]; [8]) | transfection efficiency (hAMSC donor 1 [4]; [9]) | transfection efficiency (hAMSC donor 2 [5]; [7]) | transfection efficiency (hAMSC donor 2 [5]; [8]) | transfection efficiency (hAMSC donor 2 [5]; [9]) | transgenic luciferase activity (hAMSC donor 1 [6]; [8]) | transgenic luciferase activity (hAMSC donor 2 [3]; [8]) | transgenic luciferase activity (hAMSC donor 1 [6]; [9])
CNC(=N)NCCC[C@H](N)C(=O)O [L-NMMA acetate] | 1.02 ± 0.032 | 1.43 ± 0.15 | 1.21 ± 0.048 | 0.828 ± 0.13 | 1.18 ± 0.049 | 0.888 ± 0.067 | 1.65 ± 0.78 | 0.925 ± 0.36 | 1.13 ± 0.11 | 1.2 ± 0.33 | 1.03 ± 0.12 | 1.34 ± 0.097 | 1.26 ± 0.069 | – | – | –
CC[C@@H]1C(=O)OC[C@@H]1Cc1cncn1C [Pilocarpine hydrochloride] | 1.28 ± 0.016 | 1.29 ± 0.17 | 1.62 ± 0.49 | 1.21 ± 0.11 | 1.33 ± 0.062 | 0.894 ± 0.06 | 0.898 ± 0.092 | 1.13 ± 0.13 | 1.04 ± 0.15 | 0.779 ± 0.28 | 0.888 ± 0.15 | 1.03 ± 0.22 | 0.844 ± 0.15 | – | – | –
